PubChem BioAssay AID1259405 | NCATS – 2018
Test: 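Mouse-designed siRNAs used to find CHO productivity engineering targets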 (primary screen). Cells: Chinese hamster CHO-K1 ovary cells with stable secreted eGFP expression. Knock-down reagent: single siRNA against mouse genes, 0.8 pmol siRNA per well (2 µl of 400 nM stock). Duration: 3 days. Detection: 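Percent of the per-plate non-targeting control median for intracellular GFP per well by laser scanning cytometry and for cell viability by ATP luminescence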. Direction: GFP, % of control: higher = more GFP per well, higher productivity; viability (ATP), % of control: higher = more viable cells (more ATP). Active means: 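Called active when intracellular GFP, relative to negative control, is at or above 120%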.
Here is one part, drawn at random, of about 50,000 reagents. About 4,000 of all reagents (8%) count as active. 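Mouse siRNA library applied to hamster cells; one well for each siRNA.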 Reagents against one gene are numbered here. Reagent sequences are not shown.

1810009J06Rik #1 showed GFP, % of control 38.9; viability (ATP), % of control 38.7; inactive.
With knock-down of 1810009J06Rik #2 the results were GFP, % of control 30.8; viability (ATP), % of control 52; inactive.
Against 1810009J06Rik #3 the deposit lists GFP, % of control 64.8; viability (ATP), % of control 93.4; inactive.
With knock-down of Selenoi #1, the record shows GFP, % of control 50.2; viability (ATP), % of control 26.5; inactive.
For Selenoi #2, the values are GFP, % of control 77.3; viability (ATP), % of control 85.3; inactive.
For Selenoi #3 the deposit lists GFP, % of control 63.4; viability (ATP), % of control 44.2; inactive.
For Zfp35 #1 the deposit lists GFP, % of control 74; viability (ATP), % of control 80.7; inactive.
Zfp35 #2 gave GFP, % of control 67; viability (ATP), % of control 87.7; inactive.
After knock-down of Zfp35 #3, the screen gave GFP, % of control 72.9; viability (ATP), % of control 72; inactive.
Depletion of Arhgef2 #1 came out at: GFP, % of control 107; viability (ATP), % of control 82.9; inactive.
With knock-down of Arhgef2 #2 the results were GFP, % of control 65.4; viability (ATP), % of control 54; inactive.
For Arhgef2 #3, the values are GFP, % of control 66.1; viability (ATP), % of control 61.6; inactive.
After knock-down of Tmem171 #1, the screen gave GFP, % of control 97.1; viability (ATP), % of control 128; inactive.
Silencing of Tmem171 #2 resulted in: GFP, % of control 67.4; viability (ATP), % of control 64.5; inactive.
Knock-down of Acad8 #1 came out at: GFP, % of control 76.7; viability (ATP), % of control 74.9; inactive.
Silencing of Acad8 #2 gave: GFP, % of control 42.4; viability (ATP), % of control 61.2; inactive.
Knock-down of Acad8 #3 gave: GFP, % of control 79.8; viability (ATP), % of control 89.5; inactive.
Depletion of Vmn2r57 #1 gave: GFP, % of control 130; viability (ATP), % of control 149; active.
Silencing of Vmn2r57 #2 gave: GFP, % of control 91.7; viability (ATP), % of control 58.9; inactive.
With knock-down of Vmn2r57 #3, the screen gave GFP, % of control 54.3; viability (ATP), % of control 58.1; inactive.
Depletion of Faap100 #1 gave: GFP, % of control 99.4; viability (ATP), % of control 93.8; inactive.
Against Faap100 #2, the entry reads GFP, % of control 169; viability (ATP), % of control 87; active.
Depletion of Faap100 #3 came out at: GFP, % of control 64.7; viability (ATP), % of control 69.6; inactive.
For C2cd2l #1, the entry reads GFP, % of control 81.1; viability (ATP), % of control 88.9; inactive.
Against C2cd2l #2 the deposit lists GFP, % of control 82; viability (ATP), % of control 111; inactive.
C2cd2l #3 scored GFP, % of control 107; viability (ATP), % of control 119; inactive.
Eps8l2 #1 showed GFP, % of control 94.7; viability (ATP), % of control 51.2; inactive.
With knock-down of Eps8l2 #2 the results were GFP, % of control 95.7; viability (ATP), % of control 71.1; inactive.
Silencing of Tmed9 #1 resulted in: GFP, % of control 100; viability (ATP), % of control 55.6; inactive.
For Tmed9 #2, the entry reads GFP, % of control 91.6; viability (ATP), % of control 100; inactive.
Tmed9 #3 showed GFP, % of control 53.9; viability (ATP), % of control 71.3; inactive.
Silencing of Ttc34 #1 resulted in: GFP, % of control 99.8; viability (ATP), % of control 118; inactive.
Silencing of Ttc34 #2 came out at: GFP, % of control 67.6; viability (ATP), % of control 90.7; inactive.
Against Ttc34 #3 the deposit lists GFP, % of control 91.9; viability (ATP), % of control 72.1; inactive.
With knock-down of Nisch #1 the results were GFP, % of control 117; viability (ATP), % of control 68.6; inactive.
Knock-down of Nisch #2 resulted in: GFP, % of control 79.6; viability (ATP), % of control 64.6; inactive.
Against Nisch #3 the deposit lists GFP, % of control 85.4; viability (ATP), % of control 90; inactive.
After knock-down of Or1e16 #1, the screen gave GFP, % of control 79.7; viability (ATP), % of control 55.4; inactive.
Against Or1e16 #2, the entry reads GFP, % of control 113; viability (ATP), % of control 93.6; inactive.
For Or1e16 #3 the deposit lists GFP, % of control 97.4; viability (ATP), % of control 59.6; inactive.

Individual results from the list.
Value for Nisch #1 under “activity call”: inactive
Result of 1810009J06Rik #1 in “activity call”: inactive
Tmed9 #3, viability (ATP), % of control: 71.3
Value for Eps8l2 #1 in “GFP, % of control”: 94.7
Result of Zfp35 #3 in “GFP, % of control”: 72.9
For “GFP, % of control”, Or1e16 #3 is entered as 97.4
